# Laboratory results reported in the supplement of paper PMC4840960.
# The list shows a part of the results. Baselines shift from plate to plate; read single values as rough.
# Tested on: E18 rat cortical neuron-glia co-culture
# Assay: total nuclei (DAPI) / Olig2+ nuclei (ratio); higher = more depletion of OPC/OL lineage cells
# Conditions: 1 µM; treatment time: 8 days (DIV5-DIV13)
row,Structure (SMILES),total nuclei
1,CC1=C(/C=C/C(C)=C/C=C/C(C)=C/C(=O)O)C(C)(C)CCC1 [Retinoic Acid],3.87
2,CC1CNc2c(cccc2S(=O)(=O)N[C@@H](CCCNC(=N)N)C(=O)N2CC[C@@H](C)C[C@@H]2C(=O)O)C1 (stereo partly drawn) [Argatroban],5.1
3,CNCCCN1c2ccccc2CCc2ccccc21 [Desipramine],2.53
4,C[C@]12CCC(=O)C=C1CC[C@@H]1[C@@H]2C(=O)C[C@@]2(C)[C@H]1CC[C@]2(O)C(=O)CO [Cortisone],2.79
5,CCc1c(C)[nH]c2c1C(=O)C(CN1CCOCC1)CC2 (stereo not drawn) [Molindone],2.61
6,OCCN(CCO)c1nc(N2CCCCC2)c2nc(N(CCO)CCO)nc(N3CCCCC3)c2n1 [Dipyridamole],4
7,CC(C)c1nc(CN(C)C(=O)N[C@H](C(=O)N[C@@H](Cc2ccccc2)C[C@H](O)[C@H](Cc2ccccc2)NC(=O)OCc2cncs2)C(C)C)cs1 [Ritonavir],2.8
8,O=C(O)Cc1ccccc1Nc1c(Cl)cccc1Cl [Diclofenac],3.9
9,CC[N+](C)(C)c1cccc(O)c1 [Edrophonium],3.4
10,C[C@]12C=CC(=O)C=C1CC[C@@H]1[C@@H]2[C@@H](O)C[C@@]2(C)[C@H]1CC[C@]2(O)C(=O)COC(=O)CCC(=O)O [Prednisolone hemisuccinate],3.02
11,CN(C)CCCN1c2ccccc2CCc2ccc(Cl)cc21 [Clomipramine],3.33
12,CC(N)C12CC3CC(CC(C3)C1)C2 (stereo not drawn) [Rimantadine],2.79
13,O=C(O[C@@H]1Cc2c(O)cc(O)cc2O[C@@H]1c1cc(O)c(O)c(O)c1)c1cc(O)c(O)c(O)c1 [Epigallocatechin gallate],7.63

# 2 compounds drawn at random from those above, as already listed:
row,Structure (SMILES),total nuclei
8,O=C(O)Cc1ccccc1Nc1c(Cl)cccc1Cl [Diclofenac],3.9
2,CC1CNc2c(cccc2S(=O)(=O)N[C@@H](CCCNC(=N)N)C(=O)N2CC[C@@H](C)C[C@@H]2C(=O)O)C1 (stereo partly drawn) [Argatroban],5.1
